Test results from the supplement of paper PMC11732987, “Enantioselective OTUD7B fragment discovery through chemoproteomics screening and high-throughput optimisation” (Communications Chemistry, 2025).
This is one part of the list. The data scatter; read single values as rough.

By UniProt entry, the sequences of proteins in these tests, tags left out. Where a name states a change or a piece, a line headed by the entry shows the natural chain unless it says otherwise. Residues count along the entry.
UniProt O95071, 605-632: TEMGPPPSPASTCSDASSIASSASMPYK
UniProt P46939: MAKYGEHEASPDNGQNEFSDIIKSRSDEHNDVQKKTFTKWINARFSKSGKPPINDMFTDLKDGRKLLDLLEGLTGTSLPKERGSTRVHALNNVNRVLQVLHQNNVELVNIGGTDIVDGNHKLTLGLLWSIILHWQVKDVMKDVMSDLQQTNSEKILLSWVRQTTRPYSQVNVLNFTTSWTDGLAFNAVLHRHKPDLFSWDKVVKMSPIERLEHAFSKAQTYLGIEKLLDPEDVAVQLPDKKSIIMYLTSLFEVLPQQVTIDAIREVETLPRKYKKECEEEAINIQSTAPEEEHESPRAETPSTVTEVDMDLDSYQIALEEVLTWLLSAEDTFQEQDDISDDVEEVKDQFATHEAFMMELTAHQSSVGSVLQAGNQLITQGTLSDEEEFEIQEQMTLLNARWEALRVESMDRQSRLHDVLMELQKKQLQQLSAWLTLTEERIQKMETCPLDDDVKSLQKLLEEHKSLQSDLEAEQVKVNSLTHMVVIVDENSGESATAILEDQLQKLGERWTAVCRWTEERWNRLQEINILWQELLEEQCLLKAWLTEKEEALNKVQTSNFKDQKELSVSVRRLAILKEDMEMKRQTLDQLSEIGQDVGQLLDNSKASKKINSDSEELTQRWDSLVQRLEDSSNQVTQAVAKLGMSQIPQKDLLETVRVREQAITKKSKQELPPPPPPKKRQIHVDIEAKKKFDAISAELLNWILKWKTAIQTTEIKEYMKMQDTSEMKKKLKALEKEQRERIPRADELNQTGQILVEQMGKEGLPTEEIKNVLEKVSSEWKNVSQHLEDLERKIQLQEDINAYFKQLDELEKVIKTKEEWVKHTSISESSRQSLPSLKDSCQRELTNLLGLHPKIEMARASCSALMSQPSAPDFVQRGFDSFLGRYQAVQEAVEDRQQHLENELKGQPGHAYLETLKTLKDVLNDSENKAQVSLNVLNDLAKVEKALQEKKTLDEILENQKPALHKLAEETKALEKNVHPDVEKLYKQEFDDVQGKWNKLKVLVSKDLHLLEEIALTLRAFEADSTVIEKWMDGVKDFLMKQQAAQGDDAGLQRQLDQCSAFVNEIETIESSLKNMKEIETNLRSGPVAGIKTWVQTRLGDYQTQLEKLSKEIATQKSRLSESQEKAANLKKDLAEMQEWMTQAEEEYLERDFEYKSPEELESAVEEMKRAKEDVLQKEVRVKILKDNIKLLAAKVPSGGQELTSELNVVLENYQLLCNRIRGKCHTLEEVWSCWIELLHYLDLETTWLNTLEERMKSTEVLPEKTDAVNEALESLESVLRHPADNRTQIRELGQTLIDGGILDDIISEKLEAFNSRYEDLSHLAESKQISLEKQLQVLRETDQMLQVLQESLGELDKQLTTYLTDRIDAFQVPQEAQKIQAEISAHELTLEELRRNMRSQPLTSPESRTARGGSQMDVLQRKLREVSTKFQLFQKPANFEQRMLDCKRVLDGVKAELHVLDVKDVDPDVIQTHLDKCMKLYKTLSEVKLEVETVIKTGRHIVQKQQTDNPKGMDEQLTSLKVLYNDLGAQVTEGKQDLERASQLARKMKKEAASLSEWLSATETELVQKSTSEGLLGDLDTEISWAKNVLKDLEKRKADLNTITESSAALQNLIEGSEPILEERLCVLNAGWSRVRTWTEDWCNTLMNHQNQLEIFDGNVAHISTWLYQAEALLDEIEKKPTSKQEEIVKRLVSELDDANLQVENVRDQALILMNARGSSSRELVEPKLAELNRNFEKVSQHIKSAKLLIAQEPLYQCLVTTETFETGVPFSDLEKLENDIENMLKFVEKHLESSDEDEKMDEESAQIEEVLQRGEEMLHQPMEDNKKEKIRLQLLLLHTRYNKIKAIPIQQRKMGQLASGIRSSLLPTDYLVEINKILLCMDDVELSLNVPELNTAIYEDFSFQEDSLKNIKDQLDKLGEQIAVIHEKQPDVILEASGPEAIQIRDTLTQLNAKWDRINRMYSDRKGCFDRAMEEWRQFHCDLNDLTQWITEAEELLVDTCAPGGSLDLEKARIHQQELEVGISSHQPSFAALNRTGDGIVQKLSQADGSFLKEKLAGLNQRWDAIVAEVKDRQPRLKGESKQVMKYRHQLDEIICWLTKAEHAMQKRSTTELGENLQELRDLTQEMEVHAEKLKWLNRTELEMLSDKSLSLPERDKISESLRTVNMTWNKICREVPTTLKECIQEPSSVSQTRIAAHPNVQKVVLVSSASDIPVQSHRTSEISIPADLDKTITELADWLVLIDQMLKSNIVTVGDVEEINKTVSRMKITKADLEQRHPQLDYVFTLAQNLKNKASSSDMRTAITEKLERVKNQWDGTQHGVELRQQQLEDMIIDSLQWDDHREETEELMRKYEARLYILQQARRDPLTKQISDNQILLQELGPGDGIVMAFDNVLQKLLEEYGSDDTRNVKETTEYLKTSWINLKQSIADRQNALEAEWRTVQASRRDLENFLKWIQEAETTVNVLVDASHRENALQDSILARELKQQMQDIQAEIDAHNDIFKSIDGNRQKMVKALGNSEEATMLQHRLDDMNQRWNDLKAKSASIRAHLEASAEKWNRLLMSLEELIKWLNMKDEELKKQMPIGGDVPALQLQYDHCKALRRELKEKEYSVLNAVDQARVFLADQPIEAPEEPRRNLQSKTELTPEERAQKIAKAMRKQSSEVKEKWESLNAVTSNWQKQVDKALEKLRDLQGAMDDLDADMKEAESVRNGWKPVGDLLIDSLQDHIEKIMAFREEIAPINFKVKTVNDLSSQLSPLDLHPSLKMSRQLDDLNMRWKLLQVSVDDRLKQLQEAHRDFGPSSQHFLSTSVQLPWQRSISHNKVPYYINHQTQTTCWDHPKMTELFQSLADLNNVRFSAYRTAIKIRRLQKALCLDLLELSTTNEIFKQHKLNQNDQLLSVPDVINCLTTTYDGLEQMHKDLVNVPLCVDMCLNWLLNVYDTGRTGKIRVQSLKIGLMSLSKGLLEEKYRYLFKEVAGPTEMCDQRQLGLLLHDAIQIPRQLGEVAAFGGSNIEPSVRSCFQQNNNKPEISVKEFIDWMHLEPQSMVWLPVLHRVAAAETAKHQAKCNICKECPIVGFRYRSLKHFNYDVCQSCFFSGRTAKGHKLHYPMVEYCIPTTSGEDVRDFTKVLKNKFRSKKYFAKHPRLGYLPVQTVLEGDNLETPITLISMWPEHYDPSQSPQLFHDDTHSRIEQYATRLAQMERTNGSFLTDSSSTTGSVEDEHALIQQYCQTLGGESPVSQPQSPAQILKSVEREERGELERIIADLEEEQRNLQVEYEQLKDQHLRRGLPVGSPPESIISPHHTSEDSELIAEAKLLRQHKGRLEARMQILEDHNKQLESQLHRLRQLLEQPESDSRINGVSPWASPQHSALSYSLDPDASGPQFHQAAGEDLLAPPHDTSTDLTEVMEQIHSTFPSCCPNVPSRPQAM
UniProt Q08AM6, 360-390: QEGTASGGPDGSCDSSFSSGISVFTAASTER
UniProt Q6PHR2: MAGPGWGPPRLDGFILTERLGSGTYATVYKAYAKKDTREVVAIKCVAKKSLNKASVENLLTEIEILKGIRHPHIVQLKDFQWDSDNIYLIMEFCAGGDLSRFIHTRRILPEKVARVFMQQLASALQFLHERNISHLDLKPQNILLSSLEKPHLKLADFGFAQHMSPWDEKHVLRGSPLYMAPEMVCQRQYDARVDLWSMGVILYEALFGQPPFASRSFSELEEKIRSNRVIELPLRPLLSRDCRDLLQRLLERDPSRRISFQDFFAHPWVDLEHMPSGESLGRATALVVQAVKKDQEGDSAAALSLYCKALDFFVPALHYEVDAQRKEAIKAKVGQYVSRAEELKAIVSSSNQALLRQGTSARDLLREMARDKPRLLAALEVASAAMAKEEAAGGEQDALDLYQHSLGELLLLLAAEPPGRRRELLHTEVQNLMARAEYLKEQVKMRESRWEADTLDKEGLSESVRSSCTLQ
UniProt P22695: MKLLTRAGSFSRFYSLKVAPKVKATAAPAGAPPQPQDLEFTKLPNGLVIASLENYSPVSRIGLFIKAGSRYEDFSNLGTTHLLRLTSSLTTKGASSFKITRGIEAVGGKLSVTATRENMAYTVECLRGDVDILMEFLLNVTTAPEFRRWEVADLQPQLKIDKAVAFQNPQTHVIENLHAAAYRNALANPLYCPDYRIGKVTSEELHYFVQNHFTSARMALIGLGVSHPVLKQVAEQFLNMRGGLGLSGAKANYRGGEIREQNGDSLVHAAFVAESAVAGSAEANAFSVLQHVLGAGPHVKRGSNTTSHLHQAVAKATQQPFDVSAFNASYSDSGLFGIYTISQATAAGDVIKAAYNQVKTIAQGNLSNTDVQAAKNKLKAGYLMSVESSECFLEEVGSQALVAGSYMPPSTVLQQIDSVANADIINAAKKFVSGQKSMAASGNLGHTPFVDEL
UniProt Q15853: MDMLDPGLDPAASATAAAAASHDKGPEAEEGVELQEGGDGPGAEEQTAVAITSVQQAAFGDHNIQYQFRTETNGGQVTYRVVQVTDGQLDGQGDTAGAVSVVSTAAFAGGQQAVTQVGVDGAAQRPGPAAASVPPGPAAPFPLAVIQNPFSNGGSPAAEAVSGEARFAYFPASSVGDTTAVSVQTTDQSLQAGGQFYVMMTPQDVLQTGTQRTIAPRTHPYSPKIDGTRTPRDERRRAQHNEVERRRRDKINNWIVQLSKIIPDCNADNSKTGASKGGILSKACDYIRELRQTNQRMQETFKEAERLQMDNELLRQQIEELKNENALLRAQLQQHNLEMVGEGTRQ
UniProt P09936: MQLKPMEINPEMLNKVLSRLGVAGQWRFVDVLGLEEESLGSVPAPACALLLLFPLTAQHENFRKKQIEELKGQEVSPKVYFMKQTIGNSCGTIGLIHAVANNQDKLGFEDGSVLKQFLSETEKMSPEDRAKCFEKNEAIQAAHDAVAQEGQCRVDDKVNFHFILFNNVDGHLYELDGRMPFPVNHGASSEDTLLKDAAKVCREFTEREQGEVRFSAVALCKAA
UniProt O94874: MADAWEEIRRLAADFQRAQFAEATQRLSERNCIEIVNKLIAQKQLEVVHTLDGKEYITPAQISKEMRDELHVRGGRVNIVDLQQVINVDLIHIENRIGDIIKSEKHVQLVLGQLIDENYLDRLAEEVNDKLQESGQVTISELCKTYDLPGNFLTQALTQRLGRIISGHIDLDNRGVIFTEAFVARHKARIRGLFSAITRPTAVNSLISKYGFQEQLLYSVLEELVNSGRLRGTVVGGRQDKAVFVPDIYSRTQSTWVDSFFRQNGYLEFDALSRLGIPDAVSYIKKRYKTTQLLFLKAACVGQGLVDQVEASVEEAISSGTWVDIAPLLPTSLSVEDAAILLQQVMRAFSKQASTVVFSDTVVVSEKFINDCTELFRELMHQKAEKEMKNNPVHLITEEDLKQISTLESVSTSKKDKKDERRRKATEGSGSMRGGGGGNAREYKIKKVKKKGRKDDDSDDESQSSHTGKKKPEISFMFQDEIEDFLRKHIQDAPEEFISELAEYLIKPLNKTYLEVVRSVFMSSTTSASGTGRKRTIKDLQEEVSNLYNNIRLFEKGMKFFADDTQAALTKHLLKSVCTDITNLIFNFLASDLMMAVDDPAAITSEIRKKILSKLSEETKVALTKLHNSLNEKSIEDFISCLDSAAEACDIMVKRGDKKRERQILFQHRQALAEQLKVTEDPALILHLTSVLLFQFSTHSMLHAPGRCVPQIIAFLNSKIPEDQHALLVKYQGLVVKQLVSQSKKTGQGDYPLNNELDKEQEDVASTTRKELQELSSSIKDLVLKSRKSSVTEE
UniProt P17480: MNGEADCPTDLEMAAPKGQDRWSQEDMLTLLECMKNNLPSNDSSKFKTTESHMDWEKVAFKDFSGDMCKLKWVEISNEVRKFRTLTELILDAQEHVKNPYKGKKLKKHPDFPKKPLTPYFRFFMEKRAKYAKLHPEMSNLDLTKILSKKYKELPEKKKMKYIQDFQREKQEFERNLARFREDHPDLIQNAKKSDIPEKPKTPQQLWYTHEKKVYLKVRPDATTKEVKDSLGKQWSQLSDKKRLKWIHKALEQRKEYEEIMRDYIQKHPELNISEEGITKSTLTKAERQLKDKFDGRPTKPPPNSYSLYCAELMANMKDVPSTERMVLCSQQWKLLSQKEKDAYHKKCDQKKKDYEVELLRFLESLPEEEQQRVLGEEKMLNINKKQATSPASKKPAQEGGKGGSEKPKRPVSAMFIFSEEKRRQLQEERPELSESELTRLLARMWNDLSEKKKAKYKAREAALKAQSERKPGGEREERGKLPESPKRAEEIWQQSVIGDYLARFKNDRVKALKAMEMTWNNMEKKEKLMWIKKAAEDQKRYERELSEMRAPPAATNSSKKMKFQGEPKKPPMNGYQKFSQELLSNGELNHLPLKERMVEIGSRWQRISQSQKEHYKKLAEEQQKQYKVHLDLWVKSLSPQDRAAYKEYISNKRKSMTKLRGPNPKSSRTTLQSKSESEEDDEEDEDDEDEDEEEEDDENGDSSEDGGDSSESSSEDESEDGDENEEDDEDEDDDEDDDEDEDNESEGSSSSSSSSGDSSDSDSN

Assays:
[1] = compound: ClCC(=O)N[C@@H]1CCCc2ccccc12; test: log2 mean competition ratio of IA-DTB cysteine labelling (DMSO/compound) (log2 ratio); higher = stronger cysteine engagement by compound; details: treatment time: 4 h, cell line lysate: HEK293T
Protocol: (§1)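 IA-DTB competitive cysteine chemoproteomics in HEK293T RIPA lysate. Lysates were treated with compound 29 or 30 at 50 or 200 µM for 4 h, then IA-DTB (500 µM, 1 h), trypsin-digested, NeutrAvidin-enriched and analysed by diaPASEF. Competition ratio = intensity DMSO / intensity compound (n=4 treated, n=64 DMSO); binding: mean log2 CR ≥ 1 and p ≤ 0.05 plus QC filters. Target is the cysteine site.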

[2] = compound: ClCC(=O)N[C@H]1CCCc2ccccc12; test: as above; details: treatment time: 4 h, cell line lysate: HEK293T
Protocol: as §1

| Target | log2 mean competition ratio ([1]; 50 µM) | log2 mean competition ratio ([1]; 200 µM) | log2 mean competition ratio ([2]; 50 µM) | log2 mean competition ratio ([2]; 200 µM) |
| --- | --- | --- | --- | --- |
| URB1 C169 (UniProt O60287) | 0.0143 | 0.0296 | 0.0287 | -0.155 |
| UBR5 C2314 (UniProt O95071) | -0.174 | -0.153 | 0.0934 | -0.197 |
| UTRN C3076 (UniProt P46939) | 0.228 | -0.165 | 1.01 | 0.134 |
| VAC14 C372 (UniProt Q08AM6) | -0.519 | 0.047 | -0.278 | -0.146 |
| UTP18 C302 (UniProt Q9Y5J1) | 0.0405 | -0.277 | -0.42 | -0.301 |
| VEZT C41 | 0.0676 | 0.0798 | -0.111 | 0.0158 |
| URI1 C44 (UniProt O94763) | -0.147 | -0.119 | -0.13 | -0.0235 |
| ULK3 C186 (UniProt Q6PHR2) | 0.464 | 0.169 | 0.326 | 0.36 |
| VARS2 C793 | -0.0686 | 0.2 | -0.195 | 0.155 |
| VDAC2 C47 | -0.162 | 0.224 | 0.182 | 0.151 |
| USP9X C1771 (UniProt Q93008) | -0.333 | 0.117 | -0.00524 | 0.0193 |
| UBR5 C617 (UniProt O95071) | -0.0425 | -0.381 | -0.372 | -0.12 |
| UQCRC2 C125 (UniProt P22695) | 0.0788 | -0.337 | 0.0805 | -0.353 |
| USF2 C265 (UniProt Q15853) | -0.17 | 0.0565 | -0.207 | 0.453 |
| VPS18 C433 (UniProt Q9P253) | -0.0287 | -0.0902 | 0.28 | 0.15 |
| USP7 C799 | -0.0828 | -0.192 | 0.0692 | -0.154 |
| USE1 C17 (UniProt Q9NZ43) | -0.058 | -0.189 | 0.132 | -0.264 |
| UCHL1 C152 (UniProt P09936) | -0.111 | -0.13 | 0.275 | -0.0733 |
| USP42 C1145 (UniProt Q9H9J4) | -0.178 | -0.283 | 0.0156 | 0.285 |
| UFL1 C372 (UniProt O94874) | 0.179 | 0.104 | -0.171 | 0.0238 |
| VARS2 C230 | 0.0496 | 0.00943 | 0.00267 | 0.124 |
| VPS26C C243 (UniProt O14972) | -0.337 | -0.0458 | 0.2 | 0.452 |
| UBTF C68 (UniProt P17480) | -0.143 | 0.0617 | 0.393 | 0.0755 |

Another view of part of the listing above.
Target | log2 mean competition ratio ([1]; 50 µM) | log2 mean competition ratio ([1]; 200 µM) | log2 mean competition ratio ([2]; 50 µM) | log2 mean competition ratio ([2]; 200 µM)
USE1 C17 (UniProt Q9NZ43) | -0.058 | -0.189 | 0.132 | -0.264
UCHL1 C152 (UniProt P09936) | -0.111 | -0.13 | 0.275 | -0.0733
USP42 C1145 (UniProt Q9H9J4) | -0.178 | -0.283 | 0.0156 | 0.285
UFL1 C372 (UniProt O94874) | 0.179 | 0.104 | -0.171 | 0.0238
VARS2 C230 | 0.0496 | 0.00943 | 0.00267 | 0.124
VPS26C C243 (UniProt O14972) | -0.337 | -0.0458 | 0.2 | 0.452
